# Only a part is listed here, and it is no random draw. At the low end of the ranking the order means little.
# Target: T1, FEV (UniProt Q99581)
# T1 sequence: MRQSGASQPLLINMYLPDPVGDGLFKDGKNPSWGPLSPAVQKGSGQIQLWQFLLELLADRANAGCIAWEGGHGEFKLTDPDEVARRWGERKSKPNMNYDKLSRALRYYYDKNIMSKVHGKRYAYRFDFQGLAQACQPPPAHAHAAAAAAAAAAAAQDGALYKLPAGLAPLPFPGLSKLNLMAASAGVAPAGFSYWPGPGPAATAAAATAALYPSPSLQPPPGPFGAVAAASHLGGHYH
# Assay: DAPPL (digital affinity profiling via proximity ligation, sequencing)
# Conditions: 10 mM Tris-HCl pH 7.5, 50 mM NaCl, 1 mM DTT, 4% glycerol, room temperature, 30 min; GST-TFs on glutathione beads, 16-mer random dsDNA library, 0.1% …; high values mean tight binding; double strand, one strand shown; scale: fold enrichment (6-mer frequency, TF over GST control)
row,Sequence,binding signal
1,TAGAAG,0.999
2,CGCGAT,0.994
3,CTAGCA,1.27
4,TTATCG,1.21
5,AGTATA,0.955
6,CGTTAT,1.03
7,TTTGCC,1.26
8,TTTCCA,1.34
9,TAGGAT,0.927
10,TACTCA,1.24
11,TCCTGA,1.31
12,TCTACC,1.52
13,ATCAAC,1.13
14,TAAAGG,1.02
15,AAGGAT,1.1
16,AAGCCT,1.2
17,AGGCTT,0.995
18,TGATAA,0.969
19,TCCCAT,1.32
20,AATCTA,1.15

row,Sequence,binding signal
1,CCGCTC,1.61
2,TCTTTC,1.39
3,AGCTAT,1.16
4,CTCGGC,1.29
5,AAAACG,1.18
6,CTGAAC,1.35
7,TCAGAT,0.977
8,CGAGCA,1.16
9,TTTTCG,1.23
10,TTTTTC,1.19
11,ATAAAA,1.15
12,TATCTT,1.33
13,GGATCT,0.957
14,AATCCG,2.44
15,CCTGCT,1.67
16,CAATAC,1.27
17,GATAAT,0.99
18,TCTTTT,1.44
19,ATACGC,1.05

# Quoted at random: two records from the list.
row,Sequence,binding signal
18,TCTTTT,1.44
9,TTTTCG,1.23

# — PMC7862700
